Where two headings read alike, the source gives them in different places. About 95 (3%) of roughly 3,300 compounds showed an effect of 50% or more. Some of the results follow.
Test system: HCoV-229E
Design: species or system Huh-7; HTS, protection from HCoV-229E induced cell death, luminescent cell viability (CellCounting-Lite 2.0), inhibition rate
Settings: 24 h post infection, 1 h compound pre-incubation, 10 µM, inhibitor

Compound | 229E Inhibition rate [%] | 229E Inhibition rate (229E Inhibition rate, 24 h) [%]
CC(C)(O)CC[C@@H](O)[C@](C)(O)[C@H]1CC[C@@]2(O)C3=CC(=O)[C@@H]4C[C@@H](O)[C@@H](O)C[C@]4(C)[C@H]3CC[C@]12C [Crustecdysone] | 13.7 | –
COc1ccc2c(c1O)-c1c(O)c(OC)cc3c1[C@H](C2)[N+](C)(C)CC3 [(+)-Magnoflorine (chloride)] | 15.4 | –
COc1cc2c(cc1OC)-c1c(OC)c(OC)cc3c1[C@H](C2)N(C)CC3 [Glaucine] | 14.2 | –
CCCCCC/C=C\CCCC(=O)O [cis-5-Dodecenoic acid] | 63.5 | –
CCCCC/C=C\C/C=C\CCCCCCCC(=O)NCc1ccccc1 [N-Benzyllinoleamide] | 24.5 | –
C[C@H]1C(=O)O[C@@H]2CCN3CC=C(COC(=O)[C@](C)(O)[C@]1(C)O)[C@H]23 [Monocrotaline] | 13 | –
Nc1ccccc1C(=O)C[C@H](N)C(=O)O [2-Amino-4-(2-aminophenyl)-4-oxobutanoic acid] | – | 45.7
CN1C[C@@H]2C[C@H](C1)c1cccc(=O)n1C2 [N-Methylcytisine] | 23.5 | –
O=C1c2cccc(O)c2C(=O)c2c(O)cc(CO)cc21 [Aloe emodin] | 13.6 | –
CC1(C)O[C@H]1COc1c2ccoc2cc2oc(=O)ccc12 [Oxypeucedanin] | 0 | –
O=Cc1ccoc1 [3-Furaldehyde] | 22 | –
C=CCC1=C[C@]2(OC)C(=O)C(OC)(OC)[C@H]1[C@@H]1C(OC)(OC)C(=O)C(OC)=C[C@@]12CC=C [Asatone] | 27.8 | –
C=C(C)[C@H](CC=C(C)C)Cc1c(O)cc(OC)c2c1O[C@H](c1ccc(O)cc1OC)CC2=O [(2S)-2'-Methoxykurarinone] | 62.1 | –
O=C1c2cc(CO)cc(O)c2C(=O)c2c(O[C@@H]3O[C@H](CO)[C@@H](O)[C@H](O)[C@H]3O)cccc21 [Aloe-emodin-8-O-β-D-glucopyranoside] | 29.4 | –
C[C@H](CC[C@@]1(O)O[C@H]2C[C@H]3[C@@H]4CC=C5C[C@@H](O[C@@H]6O[C@H](CO)[C@@H](O)[C@H](O[C@@H]7O[C@H](CO)[C@@H](O)[C@H](O)[C@H]7O)[C@H]6O[C@@H]6O[C@@H](C)[C@H](O)[C@@H](O)[C@H]6O)CC[C@]5(C)[C@H]4CC[C@]3(C)[C@H]2[C@@H]1C)CO[C@@H]1O[C@H](CO)[C@@H](O)[C@H](O)[C@H]1O [Protogracillin] | 3.2 | –
C[C@@H]1C[C@H]2O[C@@]3(O[C@@H]2C(C)(C)O)[C@H](O)[C@@]2(C)[C@@H]4CC[C@H]5C(C)(C)[C@@H](O)CC[C@@]56C[C@@]46CC[C@]2(C)[C@@H]13 [Cimigenol] | 36.6 | –

Look-ups from the entries so far:
Value of O=Cc1ccoc1 [3-Furaldehyde] under 229E Inhibition rate [%]: 22
Value of C[C@H]1C(=O)O[C@@H]2CCN3CC=C(COC(=O)[C@](C)(O)[C@]1(C)O)[C@H]23 [Monocrotaline] under 229E Inhibition rate [%]: 13

Source: publication PMC12431657, “Discovery and mechanistic insights of dibenzoylmethane as a broad spectrum inhibitor of coronavirus” (PLOS Pathogens, 2025)
